Assay results: PubChem BioAssay AID1671190 (National Center for Advancing Translational Sciences (NCATS), 2021)
“And” between values parts separate entries of the source, which are not always exact repeats. Equal entries are not always repeated. Hit rate of the full screen: of about 580,000 compounds, about 6,100 (1.1%) were called active. Inconclusive results, whose numbers are uncertain, are shown with a selection of clear calls. Calls come from the whole dose curve; as a rule, active = well fitted inhibition curve with a large enough effect; inconclusive = small, poorly fitted or top-dose-only effect, or another doubt; inactive = no such curve, though single readings can be large or run the other way. Potencies beside an inconclusive call are fits to weak or partial responses and may not hold up.

Amino acid sequences for entries named in this document (tags omitted). A change or cut given only in a name is not applied to a line headed by its entry.
UniProt P18054: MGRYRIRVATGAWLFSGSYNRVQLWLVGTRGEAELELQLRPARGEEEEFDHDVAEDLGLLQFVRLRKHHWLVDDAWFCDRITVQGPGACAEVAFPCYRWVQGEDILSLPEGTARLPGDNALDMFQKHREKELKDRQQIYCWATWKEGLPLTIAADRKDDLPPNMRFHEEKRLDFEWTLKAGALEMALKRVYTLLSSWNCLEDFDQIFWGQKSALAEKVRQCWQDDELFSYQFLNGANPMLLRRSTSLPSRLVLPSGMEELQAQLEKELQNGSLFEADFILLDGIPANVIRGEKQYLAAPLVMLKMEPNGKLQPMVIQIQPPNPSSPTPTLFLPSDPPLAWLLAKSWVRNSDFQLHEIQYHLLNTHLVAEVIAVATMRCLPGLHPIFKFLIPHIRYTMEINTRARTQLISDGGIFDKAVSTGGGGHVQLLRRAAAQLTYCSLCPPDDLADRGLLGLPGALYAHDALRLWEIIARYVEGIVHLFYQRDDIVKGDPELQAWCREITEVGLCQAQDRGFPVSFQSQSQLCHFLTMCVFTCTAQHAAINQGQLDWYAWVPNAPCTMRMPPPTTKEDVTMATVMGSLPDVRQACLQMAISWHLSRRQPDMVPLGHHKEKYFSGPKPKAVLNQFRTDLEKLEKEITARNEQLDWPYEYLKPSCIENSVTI

Target: Polyunsaturated fatty acid lipoxygenase ALOX12 (Homo sapiens) (UniProt P18054)
Assay: Primary qHTS assay for inhibitors of human arachidonate 12S-lipoxygenase (ALOX12): Round 2
Details: purified 12hLO, xylenol orange hydroperoxide absorbance; series mostly up to 108 µM
How it was run: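 Purified human 12hLO at 150 nM in 25 mM Hepes, 0.01% Triton X-100, pH 7.0, preincubated 15 min at room temperature with compound. Reaction started with 40 uM arachidonic acid, 30 min at room temperature. Hydroperoxide measured by Fe-xylenol orange, 573/405 nm absorbance ratio.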
Potency is the fitted concentration of half-maximal effect.

Compound	Potency
Nn1c(C2COc3ccccc3O2)n[nH]c1=S (stereo unspecified)	inconclusive: 31.6 µM [inhibitor, partial curve]
CCCCNc1nc(=S)[nH]c2cc(OC)c(OC)cc12	inactive
CN(C)C(=O)c1ccc(NC(=O)Cn2nc(-c3ccc(Cl)cc3)c3ccccc3c2=O)cc1	inactive
COc1cc(C)ccc1OCCOc1c(Cl)cc(Cl)cc1Cl	inactive
CCOC(=O)c1cnn2c(C(F)(F)F)cc(-c3ccco3)nc12	inactive
CCCCn1c(N)c(N(CCOC)C(=O)c2cc(-c3ccc(F)cc3)nc3ccccc23)c(=O)[nH]c1=O	inconclusive: 63.1 µM [inhibitor, partial curve, poor fit]
C=CCN=c1scc(-c2ccco2)n1/N=C/c1ccc(O)c(O)c1O	active: 17.8 µM
Cc1nn(C)c(C)c1CN(C)C(=O)CCCC(=O)O	active: 17.8 µM
CC(C)(C)S(=O)N1Cc2ccc(CO)cc2[C@H]1CCO (stereo partly specified)	inconclusive: 70.8 µM [inhibitor, single point]
COc1ccc(NC(=O)c2nc3ccccc3nc2N2CCOCC2)c(OC)c1	inconclusive: 100 µM [inhibitor, partial curve, poor fit]
NC(=O)c1cc(Cl)cn(-c2ccccc2)c1=O	inconclusive: 100 µM [inhibitor, partial curve, poor fit]
Cc1cccc(CN2CC[C@@H]3OCC(=O)N(Cc4ccc(O)cc4)[C@H]3CC2)c1	inconclusive: 25.1 µM [inhibitor, partial curve]
CC1(C)CC(=O)C(C(c2ccc(Cl)cc2Cl)C2C(=O)CC(C)(C)CC2=O)C(=O)C1	inconclusive: 22.4 µM [inhibitor, full curve, poor fit]
Cc1ccc([C@H]2N[C@]3(CCCN(CC4CCCCC4)C3=O)[C@H]3C(=O)N(Cc4ccccc4)C(=O)[C@@H]23)cc1	inconclusive: 11.2 µM [inhibitor, full curve]
CC1CCCC(=C\c2ccccc2)/C1=N/O (stereo unspecified)	inactive
Cc1ccc(S(=O)(=O)n2cccc2C)cc1	inconclusive: 141 µM [inhibitor, single point]
COc1ccc(CNC(=O)C2Cc3c(-c4ccccc4)ccnc3O2)cc1OC (stereo unspecified)	inactive
COc1ccc(S(=O)(=O)N2CCN(C3CCN(Cc4ccccc4)CC3)CC2)cc1	inactive
COc1cccc(-c2ccc(CN3C(C)C(=O)N(Cc4cn(Cc5ccco5)nn4)CCS3(=O)=O)cc2)c1OC (stereo unspecified)	inconclusive: 56.2 µM [inhibitor, partial curve, poor fit]
CCCCCCn1c(NCc2ccccc2)nc2c1c(=O)[nH]c(=O)n2C	inactive
c1ccc(N/N=C(\Cc2nc3ccccc3[nH]2)c2ccccc2)cc1	inconclusive: 50.1 µM [inhibitor, partial curve, poor fit]
Clc1ccc(OCc2nn3c(-c4ccco4)nnc3s2)c(Cl)c1	inconclusive: 79.4 µM [inhibitor, partial curve, poor fit]

Some of the entries so far, as comma-separated lines.
Compound,Potency
Nn1c(C2COc3ccccc3O2)n[nH]c1=S (stereo unspecified),"inconclusive: 31.6 µM [inhibitor, partial curve]"
CCCCNc1nc(=S)[nH]c2cc(OC)c(OC)cc12,inactive
CN(C)C(=O)c1ccc(NC(=O)Cn2nc(-c3ccc(Cl)cc3)c3ccccc3c2=O)cc1,inactive
COc1cc(C)ccc1OCCOc1c(Cl)cc(Cl)cc1Cl,inactive
CCCCn1c(N)c(N(CCOC)C(=O)c2cc(-c3ccc(F)cc3)nc3ccccc23)c(=O)[nH]c1=O,"inconclusive: 63.1 µM [inhibitor, partial curve, poor fit]"
C=CCN=c1scc(-c2ccco2)n1/N=C/c1ccc(O)c(O)c1O,active: 17.8 µM
Cc1nn(C)c(C)c1CN(C)C(=O)CCCC(=O)O,active: 17.8 µM
COc1ccc(NC(=O)c2nc3ccccc3nc2N2CCOCC2)c(OC)c1,"inconclusive: 100 µM [inhibitor, partial curve, poor fit]"
NC(=O)c1cc(Cl)cn(-c2ccccc2)c1=O,"inconclusive: 100 µM [inhibitor, partial curve, poor fit]"
Cc1cccc(CN2CC[C@@H]3OCC(=O)N(Cc4ccc(O)cc4)[C@H]3CC2)c1,"inconclusive: 25.1 µM [inhibitor, partial curve]"
CC1CCCC(=C\c2ccccc2)/C1=N/O (stereo unspecified),inactive
Cc1ccc(S(=O)(=O)n2cccc2C)cc1,"inconclusive: 141 µM [inhibitor, single point]"
COc1ccc(CNC(=O)C2Cc3c(-c4ccccc4)ccnc3O2)cc1OC (stereo unspecified),inactive
COc1cccc(-c2ccc(CN3C(C)C(=O)N(Cc4cn(Cc5ccco5)nn4)CCS3(=O)=O)cc2)c1OC (stereo unspecified),"inconclusive: 56.2 µM [inhibitor, partial curve, poor fit]"
c1ccc(N/N=C(\Cc2nc3ccccc3[nH]2)c2ccccc2)cc1,"inconclusive: 50.1 µM [inhibitor, partial curve, poor fit]"
Clc1ccc(OCc2nn3c(-c4ccco4)nnc3s2)c(Cl)c1,"inconclusive: 79.4 µM [inhibitor, partial curve, poor fit]"

Two compounds drawn at random from those above:
Compound	Potency
NC(=O)c1cc(Cl)cn(-c2ccccc2)c1=O	inconclusive: 100 µM [inhibitor, partial curve, poor fit]
COc1ccc(CNC(=O)C2Cc3c(-c4ccccc4)ccnc3O2)cc1OC (stereo unspecified)	inactive

Following part.

Compound	Potency
COC(=O)[C@@]1(Cc2ccc(F)cc2)[C@H]2c3cc(C(=O)N(C)C)n(CCc4c[nH]c5ccc(OC)cc45)c3C[C@H]2CN1C(=O)c1ccccc1	inconclusive: 126 µM [inhibitor, partial curve, poor fit]
COc1ccc(-c2sc3cc4c(cc3c2C#CC2(N)CCCCC2)OCO4)cc1	inconclusive: 39.8 µM [inhibitor, partial curve, poor fit]
Cc1ccc(C(=O)NNC(=O)CSc2nnc3c(n2)[nH]c2ccc(F)cc23)cc1	inconclusive: 100 µM [inhibitor, partial curve, poor fit]
O=C(COc1cccc(-c2nnc3n2CCCC3)c1)N1CCN(c2ccccc2F)CC1	inactive
O=C1CCN(C(=O)C2CCCCC2)CCCC(c2nc(-c3cccnc3)no2)CCN1 (stereo unspecified)	inconclusive: 89.1 µM [inhibitor, single point]
Cc1nc(N2CCOCC2)c2oc3ccccc3c2n1	inactive
CCN1C(=O)[C@H]2[C@H]3CN=C(SCc4ccc(Cl)cc4)N3[C@@](Cc3ccccc3)(C(=O)OC)[C@H]2C1=O	inconclusive: 50.1 µM [inhibitor, partial curve, poor fit]
Cc1ccnc2c([N+](=O)[O-])cccc12	inconclusive: 4.47 µM [inhibitor, full curve, poor fit]
CC(C)CCN1CCCC2(CNc3ccccc3[S+](=O)([O-])N2)C1 (stereo unspecified)	inactive
C#CCOCCOCCOCCNc1nc(N2CCN(C(=O)Cn3cc(CCCCN)nn3)CC2)nc(N2CCN(C(=O)[C@H](CCCCN)n3cc(CCC(=O)O)nn3)CC2)n1	inconclusive: 50.1 µM [inhibitor, partial curve, poor fit]
COc1cc([N+](=O)[O-])cc(/C=N/NC(=O)C(C)Nc2cccc3ccccc23)c1O (stereo unspecified)	inconclusive: 44.7 µM [inhibitor, partial curve, poor fit]
Cc1ccc(NC(=O)c2cc3c(cc2C)OCCCO3)cc1	inactive
O=C(C1=C(O)C(=O)N(c2ncccn2)C1c1ccc(Cl)c(Cl)c1)c1ccco1 (stereo unspecified)	active: 2 µM
N#Cc1ccc(N/N=C/c2ccccc2)c([N+](=O)[O-])c1	inactive
Cc1nc2nc(SCC(=O)c3ccc4c(c3)OCO4)[nH]c2cc1Br	inactive
CCOC(=O)C1CC1CN1CCCC2(Cc3ccccc3CNC2=O)C1 (stereo unspecified)	inconclusive: 79.4 µM [inhibitor, partial curve]
COC(=O)[C@@]1(C)CCCC2(C)c3ccc(C(C)C)cc3CCC21 (stereo partly specified)	inconclusive: 50.1 µM [inhibitor, single point]
NC(=O)c1ccc(NC(=O)CN2CCN(S(=O)(=O)c3ccc4c(c3)OCCO4)CC2)cc1	inconclusive: 17.8 µM [inhibitor, single point]
Cc1ccc(-c2c3c(=O)n(C)c(=O)n(C)c3c3n2C(C)(C)COC3c2ccc(C)cc2O)cc1 (stereo unspecified)	active: 6.31 µM
O=c1cc(CN2CCN(S(=O)(=O)c3ccc4c(c3)OCCO4)CC2)c2ccc(O)cc2o1	inconclusive: 44.7 µM [inhibitor, partial curve, poor fit]
Cc1nc(N/N=C/c2ccc(Br)cc2)cc(N2CCOCC2)n1	inconclusive: 89.1 µM [inhibitor, partial curve, poor fit]
COc1ccc2nc3c(cc2c1)c(NC(=O)c1cccs1)nn3CC(C)C	inconclusive: 7.08 µM [inhibitor, partial curve, poor fit]

Compound	Potency
O=C(NCCc1nc(Cc2ccccc2)no1)c1ccc2nccn2c1	inactive
CCCC(=O)N1CCC(C(=O)NCC2(c3ccc(F)cc3)CC2)CC1	inactive
Cc1cc(C)nc(SCCCNCc2ccc(Br)cc2)n1	inconclusive: 0.794 µM [inhibitor, full curve, poor fit]
CC(=O)c1ccc(NC(=O)C2CCC(CNS(=O)(=O)c3ccc(Br)s3)CC2)cc1 (stereo unspecified)	inconclusive: 126 µM [inhibitor, partial curve, poor fit]
CC(=O)Nc1ccc(-c2nc(NC3CCCCC3)sc2C)cc1	inconclusive: 44.7 µM [inhibitor, partial curve, poor fit]
CCN1CCCC(c2nc3ccc(C)cc3c(=O)[nH]2)C1 (stereo unspecified)	inconclusive: 100 µM [inhibitor, partial curve, poor fit] and inconclusive: 126 µM [inhibitor, single point]
CCOC(=O)C1CN(S(=O)(=O)c2ccc(Cl)cc2)c2cc(S(=O)(=O)CC)ccc2O1 (stereo unspecified)	inactive
CC(C)CCNC(=O)C(c1ccco1)N(Cc1ccc(F)cc1)C(=O)c1snc(C(N)=O)c1N (stereo unspecified)	inactive
COCCNC(=S)NCCc1ccc(Cl)cc1Cl	inconclusive: 50.1 µM [inhibitor, partial curve, poor fit]
Cc1cccc(NC(=O)c2oc3ccccc3c2NC(=O)c2nn(-c3ccc(F)cc3)ccc2=O)c1	inconclusive: 31.6 µM [inhibitor, partial curve, poor fit]
COc1ccc(NC(=O)CSc2nnc(Cc3cccs3)n2C)cc1	inconclusive: 44.7 µM [inhibitor, partial curve, poor fit]
Cc1ccc(CN(C(=O)c2ccco2)c2ccc(CC(=O)N(C)Cc3ccccc3)cc2)cc1	inconclusive: 12.6 µM [inhibitor, full curve]
CC(=C/c1ccccc1)/C=N/n1c(-c2ccco2)n[nH]c1=S	inconclusive: 44.7 µM [inhibitor, partial curve, poor fit]
COCCn1c(C)cnc1CCNS(=O)(=O)c1ccccc1	inactive
Cn1nccc1C(=O)N1CCc2c([nH]c3ccccc23)C1c1ccc(F)cc1 (stereo unspecified)	inconclusive: 39.8 µM [inhibitor, partial curve, poor fit]
CC[C@H](C)[C@H](N)C(N)=O	inconclusive: 39.8 µM [inhibitor, partial curve, poor fit]
CSc1ccccc1NC(=O)c1ccc(F)cc1F	inactive
Cc1cc(C(=O)COC(=O)c2ccc[nH]c2=O)c(C)n1-c1ccccc1F	inactive
CN(C(=O)c1ccc(NC(=O)C2CC2)cc1)C1CCCCC1	inconclusive: 35.5 µM [inhibitor, single point]
Cc1onc(-c2ccccc2Cl)c1C(=O)OCC(=O)c1c(N)n(C)c(=O)n(C)c1=O	inactive
Cc1ccc(CCNC(=O)CCc2cn(Cc3ccccc3C)c3ccccc23)cc1	inactive
O=C(Cn1cc(C(=O)c2ccccc2)c2ccccc21)NCc1ccccc1	inconclusive: 39.8 µM [inhibitor, partial curve, poor fit]
